Three molecules from doi:10.1101/2023.10.06.561273, “Bacterial cell surface nanoenvironment requires a specialized chaperone to activate a peptidoglycan biosynthetic enzyme” (bioRxiv, 2023) can be followed below.

No constants are given. Whether binding was seen depends on the method and setting. Binding seen in cells or lysates may run through a third protein. Some results given as binding are weak or reduced against the parent protein; the word gives no strength. Sequences can lack the tags named with a protein.

Assay [1] has as its target T1, FLAG-tagged SpoVK harboring a disrupted Walker B motif (SpoVK^B*-FLAG) (B. subtilis) (UniProt P27643).
T1 sequence: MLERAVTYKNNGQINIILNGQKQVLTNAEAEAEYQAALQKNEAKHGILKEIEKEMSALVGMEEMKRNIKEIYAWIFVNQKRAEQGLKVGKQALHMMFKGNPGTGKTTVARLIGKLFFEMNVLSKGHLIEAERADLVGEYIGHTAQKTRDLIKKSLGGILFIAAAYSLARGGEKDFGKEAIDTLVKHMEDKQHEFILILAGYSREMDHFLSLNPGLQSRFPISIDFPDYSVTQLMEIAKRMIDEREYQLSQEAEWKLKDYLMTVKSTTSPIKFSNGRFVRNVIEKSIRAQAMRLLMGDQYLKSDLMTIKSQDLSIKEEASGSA
In words: co-IP; anti-FLAG magnetic beads on extracts of B. subtilis 4 h after induction of sporulation (cells with SpoVID, or ΔspoVID cells for MurG); binding buffer 50 mM Tris-HCl pH 7.5, 150 mM NaCl, 7.5% glycerol, 0.2% Triton-X-100, 4 °C, 1 h; elution with 100 mM glycine pH 2.7; fractions immunoblotted. (In general: In western blotting, separated proteins are transferred to a membrane and probed.)

In assay [2] the target is T2, SpoVK^(B*, A5V)-FLAG (B. subtilis) (UniProt P27643).
T2 sequence: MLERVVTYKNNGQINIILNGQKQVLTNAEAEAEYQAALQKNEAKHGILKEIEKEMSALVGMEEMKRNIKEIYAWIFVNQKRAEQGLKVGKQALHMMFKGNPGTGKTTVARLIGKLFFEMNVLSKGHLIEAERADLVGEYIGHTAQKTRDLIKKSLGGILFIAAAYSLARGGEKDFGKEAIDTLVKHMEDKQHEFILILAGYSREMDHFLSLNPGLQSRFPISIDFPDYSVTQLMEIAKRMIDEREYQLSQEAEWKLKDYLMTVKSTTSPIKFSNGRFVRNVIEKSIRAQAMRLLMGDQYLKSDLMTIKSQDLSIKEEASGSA
The assay is described as above.

B1: GFP fused to the LysM domain of SpoVID (GFP-SpoVID^501−575) (domain or fragment, UniProt P37963 501-575)
chain: ESDNSLYLTKLFTKEADEFSRMKICIVQQEDTIERLCERYEITSQQLIRMNSLALDDELKAGQILYIPQYKNSHA
For the molecule B1, in assay [1], the binding entry is on record as “binds”.

B2: MurG (enzyme, UniProt P37585 1-363)
chain: MRIAISGGGTGGHIYPALAFIKEVQRRHPNVEFLYIGTENGLEKKIVERENIPFRSIEITGFKRKLSFENVKTVMRFLKGVKKSKSYLAEFKPDAVIGTGGYVCGPVVYAAAKMGIPTIVHEQNSLPGITNKFLSKYVNKVAICFEEAKSHFPSEKVVFTGNPRASEVVSIKTGRSLAEFGLSEDKKTVLIFGGSRGAAPINRAVIDMQDVLKTRDYQVLYITGEVHYEKVMNELKSKGAADNMVTKPFLHQMPEYLKAIDVIVARAGATTIAEITALGIPSVLIPSPYVTANHQEVNARSLGQHDAAIVLKETELSGEKLIEALDRIVLNEQTLKEMSERTKSLGVPDAAARLYSVLEELKK
In the case of B2, the binding entry in assay [1] and in assay [2] was “binds” throughout.

B3: SpoVID (protein, UniProt P37963 1-575)
chain: MPQNHRLQFSVEESICFQKGQEVSELLSISLDPDIRVQEVNDYVSIIGSLELTGEYNIDQNKHTEEIYTDKRFVEQVRKREDGSAELTHCFPVDITIPKNKVSHLQDVFVFIDAFDYQLTDSRILTIQADLAIEGLLDDTQDKEPEIPLYEAPAAFREEELSEPPAHSVVEEPGASSAEEAVLQHEPPAEPPELFISKAGLREELETEKAESEPPESVASEPEAREDVKEEEESEELAVPETEVRAESETEESEPEPDPSEIEIQEIVKAKKETAEPAAAIADVREEADSPAETELREHVGAEESPALEAELHSETVIAKEKEETTVSPNHEYALRQEAQNEEAAQSDQADPALCQEEAEPDEALESVSEAALSIEDSRETASAVYMENDNADLHFHFNQKTSSEEASQEELPEPAYRTFLPEQEEEDSFYSAPKLLEEEEQEEESFEIEVRKTPSAEEPKEETPFQSFQLPESSETERKETDAVPRVAPAAETKEPQTKESDNSLYLTKLFTKEADEFSRMKICIVQQEDTIERLCERYEITSQQLIRMNSLALDDELKAGQILYIPQYKNSHA
With B3, the binding entry in assay [1] and in assay [2] was “binds” each time.
